Source: PubChem BioAssay AID1259291 (Sanger Institute, 2017)
Assay: 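Find kinase and colorectal-cancer-mutated genes whose loss kills HT29 cells or aids anchor drugs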 (primary screen). System: HT29 human colorectal cancer cells. Reagent: siRNA pool against human genes. Conditions: anchor drugs added a day after transfection: BYL719 at 1 µM, cetuximab at 5 µg/ml or trametinib at 10 nM, or DMSO vehicle alone. Measured: 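Replicate-averaged viability relative to non-targeting pool, robust z-score based on control wells, plus per-drug synergy score for 1 µM BYL719, 5 µg/ml cetuximab and 10 nM trametinib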. Reading the numbers: robust z-score, knock-down alone and viability, knock-down alone: higher = more viable cells; synergy score with BYL719 and synergy score with cetuximab: higher = stronger synergistic killing with drug. Call rule: 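Essential when the robust z-score for knock-down without any drug is below -3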. Calls: active = essential (knock-down alone); inactive = no change alone.
The whole screen tested 794 reagents; below is a part drawn at random. Of all reagents, 15 (1.9%) are marked active. 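Calls rest on knock-down alone; drug synergy scores do not affect them; drugs added a day post-transfection, DMSO vehicle as comparison.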 Entries without a mark were called inactive. No viability above 1 is reported: the scale is capped. Further read-outs or replicates are left out here. No sequences are given here. The record does not give: the amount of reagent, the time to read-out.

no.	gene knocked down	robust z-score, knock-down alone	viability, knock-down alone (fraction of control)	synergy score with BYL719	synergy score with cetuximab
1	PSTK (GeneID 118672)	0.552	1	-0.0159	0.0959
2	RET (GeneID 5979)	0.552	1	-0.016	0.000526
3	STK36 (GeneID 27148)	0.552	1	-0.0857	0
4	ITK (GeneID 3702)	-0.282	0.948	-0.0816	-0.00444
5	CDKL3 (GeneID 51265)	0.552	1	0.0248	0.0145
6	CAMKK1 (GeneID 84254)	0.552	1	-0.0482	0.0661
7	PIK3C2A (GeneID 5286)	-2.13	0.834	0.0234	0.163
8	PDK4 (GeneID 5166)	0.475	0.995	0.0495	-0.00487
9	ITPKB (GeneID 3707)	0.552	1	0.0783	0.0809
10	PIK3R4 (GeneID 30849)	0.473	0.995	-0.109	0.0492
11	PDK3 (GeneID 5165)	0.552	1	-0.0354	0.0782
12	CPNE3 (GeneID 8895)	0.46	0.994	-0.162	-0.0058
13	PIP5K1B (GeneID 8395)	0.552	1	0.00451	0.0389
14	AMHR2 (GeneID 269)	0.552	1	-0.000955	0.086
15	UCK2 (GeneID 7371)	0.355	0.988	0.0743	0.046
16	COMMD3 (GeneID 23412)	-1.67	0.862	0.0673	-0.0527
17	IRAK3 (GeneID 11213)	0.552	1	0.17	0
18	ACVR1B (GeneID 91)	0.0252	0.967	-0.0154	0.0413
19	STK26 (GeneID 51765)	-0.602	0.928	-0.141	-0.0566
20	AK1 (GeneID 203)	0.552	1	0.145	0
21	KIT (GeneID 3815)	0.552	1	-0.0166	0.0355
22	CKMT2 (GeneID 1160)	0.552	1	0.0863	0
23	PANK3 (GeneID 79646)	0.552	1	-0.155	0
24	PNKP (GeneID 11284)	-0.393	0.941	-0.123	0.0655
25	PLK2 (GeneID 10769)	0.552	1	0.0146	0.0546
26	PHKA1 (GeneID 5255)	0.552	1	-0.00153	0.0794
27	CALM1 (GeneID 801)	0.552	1	-0.0915	0.0394
28	WHR1 (GeneID 8859)	0.552	1	-0.0981	0.0334
29	STK3 (GeneID 6788)	0.552	1	-0.0542	0.155
30	SMG1 (GeneID 23049)	-1.83	0.852	-0.15	-0.0564
31	NEK1 (GeneID 4750)	0.552	1	-0.0462	0.017
32	BRSK2 (GeneID 9024)	0.552	1	0.041	0
33	NIM1K (GeneID 167359)	0.552	1	-0.0531	0
34	BRD3 (GeneID 8019)	0.552	1	-0.116	0.0084
35	CDK7 (GeneID 1022)	0.552	1	-0.112	0.00957
36	CSNK2A2 (GeneID 1459)	0.552	1	0.0868	0.0552
37	AK3 (GeneID 50808)	0.552	1	-0.0422	0.0397
38	WNK3 (GeneID 65267)	0.552	1	-0.0987	0
39	STK40 (GeneID 83931)	0.552	1	0.167	0.103
40	RPS6KA1 (GeneID 6195)	0.552	1	0.0385	0
41	MAGI1 (GeneID 9223)	-1.6	0.866	-0.125	-0.0791
42	PTGS1 (GeneID 5742)	-0.543	0.932	0.0879	0.0968
43	IKBKB (GeneID 3551)	0.106	0.972	-0.0672	0.0256
44	CDK15 (GeneID 65061)	0.552	1	-0.074	0.0478
45	RAD21 (GeneID 5885)	-0.258	0.95	0.0541	0.127
46	BMX (GeneID 660)	-1.99	0.842	-0.0523	-0.0394
47	PRKCH (GeneID 5583)	0.552	1	0.0966	0.0762
48	CDKN2C (GeneID 1031)	0.111	0.973	0.0154	-0.0274
49	TK2 (GeneID 7084)	0.552	1	0.0198	0.0727
50	PIM1 (GeneID 5292)	0.547	1	0.175	0.0281

Ordered by “viability, knock-down alone (fraction of control)” (descending): 7 of the entries above
gene knocked down	robust z-score, knock-down alone	viability, knock-down alone (fraction of control)	synergy score with BYL719	synergy score with cetuximab
WHR1 (GeneID 8859)	0.552	1	-0.0981	0.0334
STK3 (GeneID 6788)	0.552	1	-0.0542	0.155
NEK1 (GeneID 4750)	0.552	1	-0.0462	0.017
BRSK2 (GeneID 9024)	0.552	1	0.041	0
NIM1K (GeneID 167359)	0.552	1	-0.0531	0
BRD3 (GeneID 8019)	0.552	1	-0.116	0.0084
SMG1 (GeneID 23049)	-1.83	0.852	-0.15	-0.0564
